Our source for the binding values is publication PMC7373794.

These are yes or no findings as the source states them, for the method shown. In cells and extracts the contact can be indirect. Some results given as binding are weak or reduced against the parent protein; the word gives no strength. Sequences can lack the tags named with a protein.

In test [1] the target is T1, ALA10-YFP Cter domain (Arabidopsis thaliana) (UniProt Q9LI83).
T1 sequence: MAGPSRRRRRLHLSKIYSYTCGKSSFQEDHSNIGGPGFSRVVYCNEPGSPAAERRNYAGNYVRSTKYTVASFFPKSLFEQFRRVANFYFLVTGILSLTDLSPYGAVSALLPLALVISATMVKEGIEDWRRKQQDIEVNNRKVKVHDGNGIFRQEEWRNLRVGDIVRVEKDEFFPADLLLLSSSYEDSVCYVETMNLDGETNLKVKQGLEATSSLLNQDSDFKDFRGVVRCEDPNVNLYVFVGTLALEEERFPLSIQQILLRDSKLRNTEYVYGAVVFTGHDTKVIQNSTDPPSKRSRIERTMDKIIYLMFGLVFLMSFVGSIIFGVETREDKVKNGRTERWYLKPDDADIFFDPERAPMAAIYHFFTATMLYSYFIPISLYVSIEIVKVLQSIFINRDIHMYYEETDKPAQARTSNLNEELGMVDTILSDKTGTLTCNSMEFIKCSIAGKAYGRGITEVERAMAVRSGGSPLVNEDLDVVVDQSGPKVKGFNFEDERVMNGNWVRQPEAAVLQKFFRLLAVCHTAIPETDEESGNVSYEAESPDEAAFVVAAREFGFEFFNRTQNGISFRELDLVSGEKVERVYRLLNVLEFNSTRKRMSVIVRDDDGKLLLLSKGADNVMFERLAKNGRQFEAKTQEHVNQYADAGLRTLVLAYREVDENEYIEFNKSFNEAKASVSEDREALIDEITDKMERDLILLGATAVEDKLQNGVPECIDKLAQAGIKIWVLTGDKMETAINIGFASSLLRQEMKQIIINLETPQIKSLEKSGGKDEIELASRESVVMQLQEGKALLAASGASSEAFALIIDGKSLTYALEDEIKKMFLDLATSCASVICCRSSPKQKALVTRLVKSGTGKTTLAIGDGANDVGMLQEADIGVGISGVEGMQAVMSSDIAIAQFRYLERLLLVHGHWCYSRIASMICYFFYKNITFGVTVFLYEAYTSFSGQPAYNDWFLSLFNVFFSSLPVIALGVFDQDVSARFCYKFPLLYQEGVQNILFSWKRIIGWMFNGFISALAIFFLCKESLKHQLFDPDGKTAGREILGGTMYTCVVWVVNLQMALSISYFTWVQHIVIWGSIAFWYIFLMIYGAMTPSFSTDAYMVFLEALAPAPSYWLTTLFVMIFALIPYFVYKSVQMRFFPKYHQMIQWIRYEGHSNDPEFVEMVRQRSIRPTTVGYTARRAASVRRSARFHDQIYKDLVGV
As to the kind of experiment: split reporter; BiFC in transfected Arabidopsis leaf protoplasts; both proteins fused in C-ter with complementary halves of YFP; confocal microscopy 24 to 48 h after transfection, emission spectra recorded.

Test [2] has as its target T2, ALA10 fused in C-ter with the YFP Nter half (Arabidopsis thaliana) (UniProt Q9LI83).
T2 sequence: T1 sequence
The test is described as above.

B1: PUB11-YFP Nter domain (protein, UniProt Q8GUG9 1-612)
chain: MAGGIVSPASLLDLIADIVEIPLNTGMFKKDCADLTRRVCLLTHLLEEIRDSTPIDSAASSSSENDWWSDLVVGLQAAKRLLSTARFQARDSSDGAAKRISFQFQCVTWKLEKALSNLPYDLYDISDEVGEQVELARSQLRRAMQRYGSLNSNKFSSALSEPMERDGFSNVIKIKAEEKLESVSETLHFGEEEEKQSSPPLRRSSSISLAYYLSKDADTDRLDKMVNKNTDESKKSDKLTIPVDFLCPVSLELMKDPVIVATGQTYERAYIQRWIDCGNLTCPKTQQKLENFTLTPNYVLRSLISRWCAEHNIEQPAGYINGRTKNSGDMSVIRALVQRLSSRSTEDRRNAVSEIRSLSKRSTDNRILIAEAGAIPVLVNLLTSEDVATQENAITCVLNLSIYENNKELIMFAGAVTSIVQVLRAGTMEARENAAATLFSLSLADENKIIIGGSGAIPALVDLLENGTPRGKKDAATALFNLCIYHGNKGRAVRAGIVTALVKMLSDSTRHRMVDEALTILSVLANNQDAKSAIVKANTLPALIGILQTDQTRNRENAAAILLSLCKRDTEKLITIGRLGAVVPLMDLSKNGTERGKRKAISLLELLRKACQ
As to B1, the binding result in test [1] is given as “binds”.

B2: PUB11 fused in C-ter with the YFP Cter half (protein, UniProt Q8GUG9 1-612)
chain: B1 chain
B2: the binding entry in test [2] was “binds”.
